Taken from: PubChem BioAssay AID652243 (Drosophila RNAi Screening Center, 2013)
The deposit covers about 24,000 reagents; below is a random part of those that have a named target and a result. In the full data, 246 (1%) are marked active. 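Plates not normalised; calls are printed but the firefly/Renilla ratio behind them is not deposited; fold cut for lowering reported inconsistently.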 Raw values vary from plate to plate and are shown uncorrected. Reagent sequences are not shown. Not given: the amount of reagent.

Purpose: 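Fly regulators of androgen-dependent reporter output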 (primary screen)
Cell system: Drosophila S2R+ cells
Reagents: long dsRNA against Drosophila genes
Timing: 72 h (48 h, then 24 h hormone)
Conditions: synthetic androgen R1881 at 10 nM for 24 h
Read-out: 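Firefly light from an androgen-responsive reporter and Renilla control light per well, raw and unnormalised, for each of two replicates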
Scale: firefly reporter light: higher = more light from androgen-responsive reporter; Renilla control light: higher = more constitutive control signal (cell number, transfection)
Active means: 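Hit when the log firefly-to-Renilla ratio dropped or increased by a fixed fold versus the mean of GFP or LacZ controls across duplicate plates; lowering cut given as 1.5 and as 3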
Meaning of the calls: active = hit: reporter lowered or raised; inactive = no hit

Nop56 [DRSC14699] → firefly reporter light, replicate 1 = 49343; firefly reporter light, replicate 2 = 49796; Renilla control light, replicate 1 = 3.68e5; Renilla control light, replicate 2 = 3.95e5; activity call = inactive
Ubqn [DRSC19581] → firefly reporter light, replicate 1 = 97977; firefly reporter light, replicate 2 = 70260; Renilla control light, replicate 1 = 5.68e5; Renilla control light, replicate 2 = 4.99e5; activity call = inactive
Ubqn [DRSC24055] → firefly reporter light, replicate 1 = 6.65e5; firefly reporter light, replicate 2 = 8.15e5; Renilla control light, replicate 1 = 9.23e5; Renilla control light, replicate 2 = 1.00e6; activity call = inactive
vih [DRSC09778] → firefly reporter light, replicate 1 = 2.18e5; firefly reporter light, replicate 2 = 1.85e5; Renilla control light, replicate 1 = 1.53e6; Renilla control light, replicate 2 = 1.38e6; activity call = inactive
vih [DRSC23625] → firefly reporter light, replicate 1 = 2.41e5; firefly reporter light, replicate 2 = 2.23e5; Renilla control light, replicate 1 = 8.61e5; Renilla control light, replicate 2 = 3.99e5; activity call = inactive
CG12895 [DRSC06210] → firefly reporter light, replicate 1 = 4.39e5; firefly reporter light, replicate 2 = 2.93e5; Renilla control light, replicate 1 = 3.24e6; Renilla control light, replicate 2 = 2.48e6; activity call = inactive
CG12895 [DRSC25590] → firefly reporter light, replicate 1 = 7.19e5; firefly reporter light, replicate 2 = 9.48e5; Renilla control light, replicate 1 = 1.29e6; Renilla control light, replicate 2 = 1.06e6; activity call = inactive
CG32267 [DRSC21561] → firefly reporter light, replicate 1 = 7.96e5; firefly reporter light, replicate 2 = 7.31e5; Renilla control light, replicate 1 = 4.47e5; Renilla control light, replicate 2 = 5.34e5; activity call = inactive
CG32267 [DRSC27104] → firefly reporter light, replicate 1 = 6.61e5; firefly reporter light, replicate 2 = 6.75e5; Renilla control light, replicate 1 = 8.40e5; Renilla control light, replicate 2 = 8.14e5; activity call = inactive
S6KL [DRSC19349] → firefly reporter light, replicate 1 = 8.60e5; firefly reporter light, replicate 2 = 1.09e6; Renilla control light, replicate 1 = 1.88e6; Renilla control light, replicate 2 = 2.07e6; activity call = inactive
S6KL [DRSC23147] → firefly reporter light, replicate 1 = 7.50e5; firefly reporter light, replicate 2 = 8.23e5; Renilla control light, replicate 1 = 1.58e6; Renilla control light, replicate 2 = 1.41e6; activity call = inactive
mxc [DRSC17819] → firefly reporter light, replicate 1 = 2.04e5; firefly reporter light, replicate 2 = 2.86e5; Renilla control light, replicate 1 = 2.27e6; Renilla control light, replicate 2 = 2.67e6; activity call = inactive
caz [DRSC23280] → firefly reporter light, replicate 1 = 7.76e5; firefly reporter light, replicate 2 = 7.20e5; Renilla control light, replicate 1 = 1.68e6; Renilla control light, replicate 2 = 1.09e6; activity call = inactive
caz [DRSC29957] → firefly reporter light, replicate 1 = 3.85e5; firefly reporter light, replicate 2 = 3.67e5; Renilla control light, replicate 1 = 1.83e6; Renilla control light, replicate 2 = 1.47e6; activity call = inactive
Swip-1 [DRSC02083] → firefly reporter light, replicate 1 = 8.94e5; firefly reporter light, replicate 2 = 1.23e6; Renilla control light, replicate 1 = 1.70e6; Renilla control light, replicate 2 = 1.33e6; activity call = inactive
Swip-1 [DRSC02084] → firefly reporter light, replicate 1 = 2.23e5; firefly reporter light, replicate 2 = 2.72e5; Renilla control light, replicate 1 = 2.08e6; Renilla control light, replicate 2 = 2.46e6; activity call = inactive
Rbp [DRSC15724] → firefly reporter light, replicate 1 = 4.07e5; firefly reporter light, replicate 2 = 4.57e5; Renilla control light, replicate 1 = 1.42e5; Renilla control light, replicate 2 = 1.50e5; activity call = inactive
Pde11 [DRSC02028] → firefly reporter light, replicate 1 = 4.52e5; firefly reporter light, replicate 2 = 6.00e5; Renilla control light, replicate 1 = 2.56e6; Renilla control light, replicate 2 = 3.51e6; activity call = inactive
Pde11 [DRSC02460] → firefly reporter light, replicate 1 = 41347; firefly reporter light, replicate 2 = 51187; Renilla control light, replicate 1 = 1.42e6; Renilla control light, replicate 2 = 1.40e6; activity call = active
Pde11 [DRSC26665] → firefly reporter light, replicate 1 = 2.74e5; firefly reporter light, replicate 2 = 2.05e5; Renilla control light, replicate 1 = 5.10e5; Renilla control light, replicate 2 = 3.65e5; activity call = inactive
Spred [DRSC05976] → firefly reporter light, replicate 1 = 1.54e6; firefly reporter light, replicate 2 = 7.95e5; Renilla control light, replicate 1 = 3.05e6; Renilla control light, replicate 2 = 1.95e6; activity call = inactive
Spred [DRSC27475] → firefly reporter light, replicate 1 = 7.03e5; firefly reporter light, replicate 2 = 4.07e5; Renilla control light, replicate 1 = 6.74e5; Renilla control light, replicate 2 = 3.79e5; activity call = inactive
Spred [DRSC37057] → activity call = inactive
